Publication PMC2956978, “Production, Purification, and Characterization of Polygalacturonase from Mucor circinelloides ITCC 6025” (Enzyme Research, 2010)

What follows are compounds tested on T1, polygalacturonase (PGase) (assay: reducing sugar release from polygalacturonic acid (Somogyi)). Conditions: 50 µM; residual activity versus control 100%; 50 mM citrate buffer pH 5.4; 5 min preincubation at 37 °C; substrate polygalacturonic acid.
T1 construct: native extracellular enzyme purified from culture filtrate (ethanol precipitation, Sephacryl S-100); 66 kDa on SDS-PAGE
Format: biochemical, Mucor circinelloides
For `O=C(O)c1cc([N+](=O)[O-])cc([N+](=O)[O-])c1O` [2,4-dinitrosalicylic Acid], the “Relative Activity (%)” value was 51.1%.
In the case of `O=C(/C=C/c1ccc(O)c(O)c1)O[C@@H]1C[C@](O)(C(=O)O)C[C@@H](O)[C@H]1O` [Chlorogenic Acid], the “Relative Activity (%)” value is reported as 58.0%.
For `O=C(O)/C=C/c1ccccc1` [Cinnamic Acid], the “Relative Activity (%)” value was 44.0%.
`COc1cc(/C=C/C(=O)O)ccc1O` [Ferulic Acid] was tested, and the “Relative Activity (%)” value was 56.0%.
In the case of `O=C(O)/C=C/c1ccc(O)cc1` [p-Coumaric Acid], the “Relative Activity (%)” value is reported as 54.0%.
